This is one part of the list.
What was measured:
Assay in all cases: log2 fold change, soluble protein after heating vs DMSO (PISA); higher = thermal stabilisation; K562 cells, 10 uM, 30 min; active = over 0.2 and 3.5 SD of the protein, either way, in both replicates (recomputed)
saracatinib = compound: CN1CCN(CCOc2cc(OC3CCOCC3)c3c(Nc4c(Cl)ccc5c4OCO5)ncnc3c2)CC1 [saracatinib]
Method in brief: (§1)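 K562 cells at 2×10^6 cells/mL were treated with 10 μM compound for 30 min. Aliquots were heated for 3 min across 48°C-58°C, pooled, and extracted in PBS with 0.5% NP-40 at 4°C; soluble protein was the supernatant after 21,000xg for 90 min. Soluble protein was quantified by TMTpro 16plex LC-MS/MS with channel sums equalised, and reported as log2 fold change in thermal stability against DMSO controls, with values from duplicates.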

Amino acid sequences for entries named in this document (tags omitted). A change or cut given only in a name is not applied to a line headed by its entry.
UniProt O95573: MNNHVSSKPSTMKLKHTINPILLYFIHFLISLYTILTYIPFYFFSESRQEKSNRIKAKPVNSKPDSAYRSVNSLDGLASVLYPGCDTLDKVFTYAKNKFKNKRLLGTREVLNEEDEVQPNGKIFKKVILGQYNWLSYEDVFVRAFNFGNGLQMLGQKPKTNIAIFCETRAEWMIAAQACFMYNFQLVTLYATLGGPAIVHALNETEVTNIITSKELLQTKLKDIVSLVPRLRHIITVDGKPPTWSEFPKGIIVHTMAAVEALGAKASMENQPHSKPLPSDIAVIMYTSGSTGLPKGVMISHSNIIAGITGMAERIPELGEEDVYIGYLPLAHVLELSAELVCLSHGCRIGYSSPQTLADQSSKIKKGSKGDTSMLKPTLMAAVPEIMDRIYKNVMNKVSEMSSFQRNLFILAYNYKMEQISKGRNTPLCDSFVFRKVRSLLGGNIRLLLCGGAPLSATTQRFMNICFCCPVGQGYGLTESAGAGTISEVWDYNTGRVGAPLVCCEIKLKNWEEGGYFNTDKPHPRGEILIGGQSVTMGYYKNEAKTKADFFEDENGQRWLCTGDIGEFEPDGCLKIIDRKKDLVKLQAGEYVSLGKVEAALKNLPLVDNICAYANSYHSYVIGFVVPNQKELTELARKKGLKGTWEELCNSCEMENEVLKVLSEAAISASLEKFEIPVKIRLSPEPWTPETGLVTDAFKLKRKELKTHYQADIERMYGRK
UniProt Q99798: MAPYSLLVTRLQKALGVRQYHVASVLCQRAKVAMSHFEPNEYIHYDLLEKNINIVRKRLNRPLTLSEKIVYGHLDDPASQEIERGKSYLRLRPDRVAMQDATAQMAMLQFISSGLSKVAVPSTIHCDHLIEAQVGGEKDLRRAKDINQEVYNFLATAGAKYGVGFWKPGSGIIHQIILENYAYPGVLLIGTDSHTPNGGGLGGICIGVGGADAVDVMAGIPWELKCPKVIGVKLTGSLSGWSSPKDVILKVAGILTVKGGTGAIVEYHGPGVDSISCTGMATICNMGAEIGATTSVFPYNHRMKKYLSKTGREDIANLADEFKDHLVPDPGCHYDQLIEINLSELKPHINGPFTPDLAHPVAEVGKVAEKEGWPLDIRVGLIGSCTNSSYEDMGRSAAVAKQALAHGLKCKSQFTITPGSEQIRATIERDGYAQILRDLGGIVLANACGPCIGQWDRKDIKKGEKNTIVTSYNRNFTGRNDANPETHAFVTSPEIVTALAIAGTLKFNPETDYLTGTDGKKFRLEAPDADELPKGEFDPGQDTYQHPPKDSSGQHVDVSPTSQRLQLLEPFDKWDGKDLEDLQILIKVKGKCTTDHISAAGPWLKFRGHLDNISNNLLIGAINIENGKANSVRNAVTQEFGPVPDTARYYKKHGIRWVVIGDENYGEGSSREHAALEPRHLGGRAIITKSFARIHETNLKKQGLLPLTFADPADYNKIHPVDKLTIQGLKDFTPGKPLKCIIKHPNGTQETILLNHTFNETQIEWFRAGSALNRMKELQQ
UniProt Q9UNA0: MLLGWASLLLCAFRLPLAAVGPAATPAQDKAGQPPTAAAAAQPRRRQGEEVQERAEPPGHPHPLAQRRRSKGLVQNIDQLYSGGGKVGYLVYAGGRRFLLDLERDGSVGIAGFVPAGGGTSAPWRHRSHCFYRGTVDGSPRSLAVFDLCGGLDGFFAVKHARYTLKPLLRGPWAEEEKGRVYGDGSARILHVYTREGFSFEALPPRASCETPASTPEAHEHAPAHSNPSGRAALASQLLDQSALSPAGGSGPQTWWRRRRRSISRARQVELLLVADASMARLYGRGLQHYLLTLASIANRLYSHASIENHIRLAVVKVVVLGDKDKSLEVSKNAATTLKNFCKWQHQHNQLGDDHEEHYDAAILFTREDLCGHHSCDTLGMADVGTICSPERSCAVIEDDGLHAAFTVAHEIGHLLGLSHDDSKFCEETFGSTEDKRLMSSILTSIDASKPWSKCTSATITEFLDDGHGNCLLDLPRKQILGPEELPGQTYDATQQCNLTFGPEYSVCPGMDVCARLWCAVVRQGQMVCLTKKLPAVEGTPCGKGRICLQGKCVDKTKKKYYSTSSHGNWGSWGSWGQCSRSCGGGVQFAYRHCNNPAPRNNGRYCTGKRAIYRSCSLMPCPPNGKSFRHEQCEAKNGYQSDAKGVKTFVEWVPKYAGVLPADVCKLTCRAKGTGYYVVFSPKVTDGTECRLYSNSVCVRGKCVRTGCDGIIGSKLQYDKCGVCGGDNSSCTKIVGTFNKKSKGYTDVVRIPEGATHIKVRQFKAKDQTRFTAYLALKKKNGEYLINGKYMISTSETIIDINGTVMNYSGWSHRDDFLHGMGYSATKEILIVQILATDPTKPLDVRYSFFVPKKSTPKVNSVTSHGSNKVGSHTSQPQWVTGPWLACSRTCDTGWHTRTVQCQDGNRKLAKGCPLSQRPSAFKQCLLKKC
UniProt Q562R1, whole entry, looked up: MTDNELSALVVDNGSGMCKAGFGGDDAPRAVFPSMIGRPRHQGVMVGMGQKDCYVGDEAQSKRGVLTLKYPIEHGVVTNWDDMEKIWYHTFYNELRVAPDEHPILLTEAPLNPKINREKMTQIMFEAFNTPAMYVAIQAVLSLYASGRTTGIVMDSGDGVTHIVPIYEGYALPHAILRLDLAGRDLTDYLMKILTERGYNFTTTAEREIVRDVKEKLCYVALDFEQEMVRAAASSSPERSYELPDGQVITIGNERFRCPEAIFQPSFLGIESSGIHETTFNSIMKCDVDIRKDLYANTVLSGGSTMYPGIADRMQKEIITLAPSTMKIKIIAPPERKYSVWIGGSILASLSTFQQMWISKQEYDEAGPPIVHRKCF
UniProt Q15057: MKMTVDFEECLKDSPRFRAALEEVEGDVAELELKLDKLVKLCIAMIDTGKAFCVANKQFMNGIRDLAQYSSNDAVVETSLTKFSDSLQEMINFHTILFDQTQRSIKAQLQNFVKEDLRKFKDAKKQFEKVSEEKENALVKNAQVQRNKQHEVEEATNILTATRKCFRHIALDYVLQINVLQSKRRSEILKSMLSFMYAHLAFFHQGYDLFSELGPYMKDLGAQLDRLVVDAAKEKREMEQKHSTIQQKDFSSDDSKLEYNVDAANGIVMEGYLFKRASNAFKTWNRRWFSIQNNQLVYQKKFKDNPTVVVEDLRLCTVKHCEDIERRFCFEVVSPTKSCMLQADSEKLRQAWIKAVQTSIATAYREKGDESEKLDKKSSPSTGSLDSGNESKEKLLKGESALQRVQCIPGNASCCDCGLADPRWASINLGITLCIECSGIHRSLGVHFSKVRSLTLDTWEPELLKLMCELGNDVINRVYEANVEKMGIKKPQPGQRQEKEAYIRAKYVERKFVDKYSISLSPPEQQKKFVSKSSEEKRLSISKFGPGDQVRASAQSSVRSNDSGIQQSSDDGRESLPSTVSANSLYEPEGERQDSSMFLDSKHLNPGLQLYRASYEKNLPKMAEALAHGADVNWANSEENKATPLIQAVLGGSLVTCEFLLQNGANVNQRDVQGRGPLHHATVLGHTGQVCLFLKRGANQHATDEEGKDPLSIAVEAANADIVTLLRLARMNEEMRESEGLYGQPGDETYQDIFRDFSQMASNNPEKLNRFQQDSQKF
UniProt O15440: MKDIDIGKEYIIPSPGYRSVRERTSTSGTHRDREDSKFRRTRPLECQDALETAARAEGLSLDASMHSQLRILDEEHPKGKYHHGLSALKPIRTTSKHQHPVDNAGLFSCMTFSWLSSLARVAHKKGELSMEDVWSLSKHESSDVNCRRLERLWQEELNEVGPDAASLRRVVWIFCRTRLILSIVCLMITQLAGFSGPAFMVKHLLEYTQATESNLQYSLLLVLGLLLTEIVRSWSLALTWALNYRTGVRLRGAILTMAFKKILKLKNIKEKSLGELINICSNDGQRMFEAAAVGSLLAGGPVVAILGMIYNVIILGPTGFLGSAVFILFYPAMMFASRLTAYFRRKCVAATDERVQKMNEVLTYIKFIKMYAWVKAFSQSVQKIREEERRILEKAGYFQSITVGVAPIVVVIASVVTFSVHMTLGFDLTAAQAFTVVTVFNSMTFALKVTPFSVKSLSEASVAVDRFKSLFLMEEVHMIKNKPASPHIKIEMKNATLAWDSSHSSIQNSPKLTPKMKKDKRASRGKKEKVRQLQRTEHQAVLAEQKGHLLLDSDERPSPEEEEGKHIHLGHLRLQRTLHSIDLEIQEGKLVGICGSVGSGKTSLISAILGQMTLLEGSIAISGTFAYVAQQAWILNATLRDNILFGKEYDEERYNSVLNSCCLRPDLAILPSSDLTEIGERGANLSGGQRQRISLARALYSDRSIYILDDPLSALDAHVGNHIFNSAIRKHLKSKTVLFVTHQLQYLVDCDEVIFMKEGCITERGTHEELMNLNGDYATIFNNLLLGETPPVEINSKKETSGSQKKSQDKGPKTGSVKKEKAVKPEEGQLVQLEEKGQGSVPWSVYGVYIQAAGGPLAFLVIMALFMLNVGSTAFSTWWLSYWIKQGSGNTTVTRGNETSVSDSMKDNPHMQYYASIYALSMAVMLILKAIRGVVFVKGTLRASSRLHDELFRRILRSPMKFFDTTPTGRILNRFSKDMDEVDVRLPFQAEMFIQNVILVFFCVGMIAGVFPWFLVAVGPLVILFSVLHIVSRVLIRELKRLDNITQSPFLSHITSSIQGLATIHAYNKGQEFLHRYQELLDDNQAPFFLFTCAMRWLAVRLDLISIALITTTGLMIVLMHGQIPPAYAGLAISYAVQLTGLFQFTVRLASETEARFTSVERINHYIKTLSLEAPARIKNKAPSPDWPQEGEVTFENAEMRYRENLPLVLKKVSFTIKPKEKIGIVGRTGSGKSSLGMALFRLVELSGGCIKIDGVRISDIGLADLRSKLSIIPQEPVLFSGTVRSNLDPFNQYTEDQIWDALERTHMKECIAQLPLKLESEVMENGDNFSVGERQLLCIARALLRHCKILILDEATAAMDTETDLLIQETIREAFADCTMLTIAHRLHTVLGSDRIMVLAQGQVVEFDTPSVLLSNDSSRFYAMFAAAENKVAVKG
UniProt O95870: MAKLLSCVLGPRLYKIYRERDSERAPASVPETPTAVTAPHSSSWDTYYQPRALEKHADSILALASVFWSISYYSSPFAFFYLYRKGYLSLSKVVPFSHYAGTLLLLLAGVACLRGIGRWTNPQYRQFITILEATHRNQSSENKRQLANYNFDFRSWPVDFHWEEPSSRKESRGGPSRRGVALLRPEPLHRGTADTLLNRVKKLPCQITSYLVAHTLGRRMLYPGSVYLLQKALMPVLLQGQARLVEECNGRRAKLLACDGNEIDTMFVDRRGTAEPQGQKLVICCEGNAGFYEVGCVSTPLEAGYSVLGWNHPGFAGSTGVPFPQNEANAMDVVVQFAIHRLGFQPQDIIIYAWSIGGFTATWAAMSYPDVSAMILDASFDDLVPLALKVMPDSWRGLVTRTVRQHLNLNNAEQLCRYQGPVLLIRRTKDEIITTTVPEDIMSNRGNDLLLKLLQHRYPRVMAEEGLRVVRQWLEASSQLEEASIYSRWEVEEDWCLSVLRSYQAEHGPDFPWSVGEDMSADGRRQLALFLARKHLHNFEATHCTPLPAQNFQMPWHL
UniProt P24666: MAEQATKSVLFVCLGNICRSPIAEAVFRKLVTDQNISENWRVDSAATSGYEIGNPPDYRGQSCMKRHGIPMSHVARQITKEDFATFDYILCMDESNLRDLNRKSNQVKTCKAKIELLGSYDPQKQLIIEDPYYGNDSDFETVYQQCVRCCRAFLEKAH
UniProt Q9NP58: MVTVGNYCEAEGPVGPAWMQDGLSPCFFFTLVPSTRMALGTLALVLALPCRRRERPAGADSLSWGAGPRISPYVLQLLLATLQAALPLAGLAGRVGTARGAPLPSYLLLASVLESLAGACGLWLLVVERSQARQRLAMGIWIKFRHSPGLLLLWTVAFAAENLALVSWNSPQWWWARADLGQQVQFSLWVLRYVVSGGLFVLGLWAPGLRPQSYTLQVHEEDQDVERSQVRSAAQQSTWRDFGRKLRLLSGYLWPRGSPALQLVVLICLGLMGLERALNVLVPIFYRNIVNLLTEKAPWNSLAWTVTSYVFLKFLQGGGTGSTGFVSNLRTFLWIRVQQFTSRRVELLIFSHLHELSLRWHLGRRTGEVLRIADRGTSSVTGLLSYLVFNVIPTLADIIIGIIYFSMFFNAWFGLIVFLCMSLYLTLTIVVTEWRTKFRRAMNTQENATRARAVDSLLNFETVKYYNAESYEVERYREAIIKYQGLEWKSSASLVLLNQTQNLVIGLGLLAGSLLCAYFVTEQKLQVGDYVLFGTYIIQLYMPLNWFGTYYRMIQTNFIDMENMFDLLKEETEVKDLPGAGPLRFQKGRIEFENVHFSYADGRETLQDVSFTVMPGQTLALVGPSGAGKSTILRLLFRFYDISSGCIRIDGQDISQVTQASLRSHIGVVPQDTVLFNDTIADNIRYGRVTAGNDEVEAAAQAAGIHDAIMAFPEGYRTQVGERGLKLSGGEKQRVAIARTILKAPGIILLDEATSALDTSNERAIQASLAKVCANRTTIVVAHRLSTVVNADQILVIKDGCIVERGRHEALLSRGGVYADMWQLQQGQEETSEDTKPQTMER

sotrastaurin = compound: CN1CCN(c2nc(C3=C(c4c[nH]c5ccccc45)C(=O)NC3=O)c3ccccc3n2)CC1 [sotrastaurin]
Method in brief: as §1

Tubastatin A = compound: CN1CCc2c(c3ccccc3n2Cc2ccc(C(=O)NO)cc2)C1 [Tubastatin A]
Method in brief: as §1

[1] = compound: CNC(=O)C1=CC=CC=C1NC2=NC(=NC=C2Cl)NC3=C(C=C(C=C3)N4CCOCC4)OC
Method in brief: as §1

defactinib = compound: CNC(=O)c1ccc(Nc2ncc(C(F)(F)F)c(NCc3nccnc3N(C)S(C)(=O)=O)n2)cc1 [defactinib]
Method in brief: as §1

rucaparib = compound: CNCc1ccc(-c2[nH]c3cc(F)cc4c3c2CCNC4=O)cc1 [rucaparib]
Method in brief: as §1

[2] = compound: CNc1nc(-c2ccc3c(N)n[nH]c3c2)cc(N2C[C@@H](C(=O)NC3CCCCC3)CC[C@H]2C)n1
Method in brief: as §1

encorafenib = compound: COC(=O)N[C@@H](C)CNc1nccc(-c2cn(C(C)C)nc2-c2cc(Cl)cc(NS(C)(=O)=O)c2F)n1 [encorafenib]
Method in brief: as §1

[3] = compound: COC(=O)[C@H](CCSC)NC(=O)C1=C(C=C(C=C1)NC[C@H](CS)N)C2=CC=CC=C2
Method in brief: as §1

[4] = compound: COC1=CC=C(C=C1)CN2C=CC3=C2C=C(C=C3)C(=O)NO
Method in brief: as §1

filanesib = compound: CON(C)C(=O)N1N=C(c2cc(F)ccc2F)S[C@@]1(CCCN)c1ccccc1 [filanesib]
Method in brief: as §1

zotarolimus = compound: CO[C@H]1C[C@@H]2CC[C@@H](C)[C@@](O)(O2)C(=O)C(=O)N2CCCC[C@H]2C(=O)O[C@H]([C@H](C)C[C@@H]2CC[C@H](n3cnnn3)[C@H](OC)C2)CC(=O)[C@H](C)/C=C(\C)[C@@H](O)[C@@H](OC)C(=O)[C@H](C)C[C@H](C)/C=C/C=C/C=C/1C [zotarolimus]
Method in brief: as §1

idasanutlin = compound: COc1cc(C(=O)O)ccc1NC(=O)[C@@H]1N[C@@H](CC(C)(C)C)[C@](C#N)(c2ccc(Cl)cc2F)[C@H]1c1cccc(Cl)c1F [idasanutlin]
Method in brief: as §1

alisertib = compound: COc1cc(Nc2ncc3c(n2)-c2ccc(Cl)cc2C(c2c(F)cccc2OC)=NC3)ccc1C(=O)O [alisertib]
Method in brief: as §1

[5] = compound: COc1cc2nc(-c3cc(F)ccc3O)nc(N[C@@H]3CNC[C@H]3C(C)(C)O)c2cc1OC
Method in brief: as §1

gefitinib = compound: COc1cc2ncnc(Nc3ccc(F)c(Cl)c3)c2cc1OCCCN1CCOCC1 [gefitinib]
Method in brief: as §1

[6] = compound: COc1cccc2cc(-c3nc([C@H]4CC[C@H](C(=O)O)CC4)n4ncnc(N)c34)[nH]c12
Method in brief: as §1

lapatinib = compound: CS(=O)(=O)CCNCc1ccc(-c2ccc3ncnc(Nc4ccc(OCc5cccc(F)c5)c(Cl)c4)c3c2)o1 [lapatinib]
Method in brief: as §1

pictilisib = compound: CS(=O)(=O)N1CCN(Cc2cc3nc(-c4cccc5[nH]ncc45)nc(N4CCOCC4)c3s2)CC1 [pictilisib]
Method in brief: as §1

Measured: log2 fold change

ACSL3 (UniProt O95573)
inactive: saracatinib 0 | sotrastaurin -0.014 | Tubastatin A -0.022 | [1] -0.008 | defactinib -0.043 | rucaparib -0.002 | [2] 0.041 | encorafenib 0.008 | [3] -0.01 | [4] 0.126 | filanesib -0.045 | zotarolimus 0.019 | idasanutlin -0.127 | alisertib 0.026 | [5] 0.046 | gefitinib 0.021 | [6] 0.037 | lapatinib 0 | pictilisib 0.022

ACO2 (UniProt Q99798)
inactive: saracatinib 0.005 | sotrastaurin -0.017 | Tubastatin A -0.021 | [1] 0.016 | defactinib -0.083 | rucaparib -0.034 | [2] 0.021 | encorafenib 0.027 | [3] -0.037 | [4] -0.101 | filanesib -0.081 | zotarolimus 0.015 | idasanutlin -0.086 | alisertib -0.016 | [5] 0.036 | gefitinib 0.008 | [6] 0.071 | lapatinib -0.018 | pictilisib 0.041

ADAMTS5 (UniProt Q9UNA0)
inactive: saracatinib -0.107 | sotrastaurin -0.004 | Tubastatin A 0.222 | [1] -0.13 | defactinib -0.021 | rucaparib -0.04 | [2] -0.048 | encorafenib -0.136 | [3] 0.028 | [4] 0.295 | filanesib -0.051 | zotarolimus -0.063 | idasanutlin -0.06 | alisertib 0.019 | gefitinib 0.012 | [6] 0.092 | pictilisib 0.198

ACTBL2 (UniProt Q562R1)
inactive: saracatinib -0.054 | sotrastaurin 0.179 | [1] 0.158 | defactinib 0.432 | rucaparib -0.711 | [2] 0.035 | encorafenib 0.239 | [3] 0.15 | filanesib 0.171 | idasanutlin 0.533 | alisertib 0.521 | [5] -0.085 | gefitinib 0.348 | [6] -0.105 | lapatinib -0.079 | pictilisib -0.541

ACSL1 (UniProt P33121)
inactive: saracatinib 0 | sotrastaurin 0.029 | Tubastatin A -0.075 | [1] -0.003 | defactinib -0.025 | rucaparib -0.021 | [2] -0.025 | encorafenib 0.031 | [3] 0.042 | [4] -0.014 | filanesib -0.08 | zotarolimus 0.038 | idasanutlin -0.017 | alisertib 0.015 | [5] -0.261 | gefitinib 0.024 | [6] 0.024 | lapatinib 0.017 | pictilisib 0.041

ACAP2 (UniProt Q15057)
inactive: saracatinib -0.02 | sotrastaurin -0.029 | Tubastatin A 0.001 | [1] 0.031 | defactinib -0.032 | rucaparib -0.016 | [2] -0.04 | encorafenib 0.062 | [3] -0.026 | [4] -0.001 | filanesib 0.119 | zotarolimus 0.01 | idasanutlin -0.047 | alisertib 0.011 | gefitinib 0.02 | [6] 0.014 | lapatinib 0.015 | pictilisib -0.059
active: [5] 0.283

ABCA3 (UniProt Q99758)
inactive: saracatinib 0.009 | sotrastaurin 0.121 | Tubastatin A -0.05 | [1] 0.065 | defactinib 0.108 | rucaparib 0.11 | [2] 0.011 | encorafenib 0.192 | [3] -0.039 | [4] -0.044 | filanesib 0.062 | zotarolimus 0.03 | idasanutlin -0.021 | [5] 0.147 | lapatinib -0.084 | pictilisib 0.01

ABCC5 (UniProt O15440)
inactive: saracatinib 0.107 | sotrastaurin -0.028 | Tubastatin A 0.002 | [1] -0.02 | defactinib 0.019 | rucaparib 0.116 | [2] -0.003 | encorafenib -0.039 | [3] 0.026 | [4] -0.026 | filanesib 0.001 | zotarolimus -0.02 | idasanutlin 0.017 | alisertib -0.026 | [5] 0.053 | gefitinib 0.089 | [6] -0.05 | lapatinib 0 | pictilisib -0.037

ABHD14A (UniProt Q9BUJ0)
inactive: saracatinib 0.056 | sotrastaurin -0.117 | [2] -0.108 | filanesib 0.121

ABHD16A (UniProt O95870)
inactive: saracatinib 0.01 | sotrastaurin 0.214 | Tubastatin A 0.004 | [1] 0.031 | defactinib -0.065 | rucaparib -0.017 | [2] 0.162 | encorafenib -0.05 | [3] 0.031 | [4] 0.051 | filanesib 0.067 | zotarolimus 0.204 | idasanutlin -0.042 | alisertib -0.049 | gefitinib 0.158 | [6] -0.039 | lapatinib 0.235 | pictilisib 0.018
active: [5] 0.347

ACP1 (UniProt P24666)
inactive: saracatinib -0.031 | sotrastaurin -0.054 | Tubastatin A 0.141 | [1] -0.1 | defactinib -0.044 | rucaparib 0.12 | [2] 0.123 | encorafenib 0.035 | [3] -0.111 | [4] 0.008 | filanesib -0.047 | zotarolimus -0.039 | idasanutlin -0.078 | alisertib 0.029 | [5] 0.056 | gefitinib 0.003 | [6] -0.086 | lapatinib -0.073 | pictilisib -0.062

ABCB6 (UniProt Q9NP58)
inactive: saracatinib 0.073 | sotrastaurin 0.01 | Tubastatin A -0.017 | [1] -0.013 | defactinib -0.031 | rucaparib -0.034 | [2] 0.003 | encorafenib 0.055 | [3] -0.017 | [4] -0.007 | filanesib -0.077 | zotarolimus 0.055 | idasanutlin -0.137 | alisertib -0.069 | [5] 0.058 | gefitinib -0.011 | [6] 0.024 | lapatinib -0.005 | pictilisib 0.06

ADAM15 (UniProt Q13444)
inactive: saracatinib -0.241 | sotrastaurin -0.034 | Tubastatin A 0.065 | [1] -0.211 | defactinib -0.04 | [2] 0.073 | [3] 0.056 | [4] -0.159 | filanesib 0.065 | zotarolimus -0.206 | idasanutlin -0.083 | [5] 0.078 | gefitinib -0.029 | lapatinib 0 | pictilisib -0.045

Quoted at random: 2 records from the list.
ABCC5 (UniProt O15440)
inactive: saracatinib 0.107 | sotrastaurin -0.028 | Tubastatin A 0.002 | [1] -0.02 | defactinib 0.019 | rucaparib 0.116 | [2] -0.003 | encorafenib -0.039 | [3] 0.026 | [4] -0.026 | filanesib 0.001 | zotarolimus -0.02 | idasanutlin 0.017 | alisertib -0.026 | [5] 0.053 | gefitinib 0.089 | [6] -0.05 | lapatinib 0 | pictilisib -0.037

ABHD14A (UniProt Q9BUJ0)
inactive: saracatinib 0.056 | sotrastaurin -0.117 | [2] -0.108 | filanesib 0.121

Carrying on.

ACP2 (UniProt P11117)
inactive: saracatinib 0.026 | sotrastaurin 0.022 | Tubastatin A -0.036 | [1] -0.006 | defactinib 0.01 | rucaparib -0.089 | [2] -0.055 | encorafenib 0.018 | [3] -0.006 | [4] -0.034 | filanesib -0.121 | zotarolimus -0.016 | idasanutlin -0.026 | alisertib 0.036 | [5] -0.002 | gefitinib 0.001 | [6] 0.053 | lapatinib 0.038 | pictilisib -0.031

ACIN1 (UniProt Q9UKV3)
inactive: saracatinib -0.027 | sotrastaurin -0.01 | Tubastatin A 0.032 | [1] -0.165 | rucaparib -0.017 | [2] -0.054 | encorafenib -0.038 | [3] 0.003 | [4] 0.019 | filanesib 0.073 | zotarolimus 0.028 | idasanutlin 0.099 | alisertib -0.082 | [5] -0.062 | gefitinib 0.041 | [6] 0.006 | lapatinib 0.034 | pictilisib 0.03
active: defactinib -0.253

AAK1 (UniProt Q2M2I8)
inactive: saracatinib 0 | sotrastaurin -0.196 | Tubastatin A 0.003 | [1] 0.281 | defactinib -0.106 | rucaparib -0.013 | [2] 0.252 | encorafenib -0.047 | [3] -0.044 | [4] 0.048 | filanesib -0.108 | zotarolimus -0.004 | idasanutlin -0.129 | alisertib 0.576 | [5] 0.024 | gefitinib -0.097 | [6] 0.022 | lapatinib 0.038 | pictilisib 0.087

ACACB (UniProt O00763)
inactive: saracatinib -0.166 | sotrastaurin -0.383 | Tubastatin A 0.087 | [1] -0.083 | defactinib 0.016 | rucaparib 0.291 | [2] 0.228 | encorafenib 0.089 | [3] -0.137 | [4] -0.019 | filanesib 0.258 | zotarolimus 0.132 | idasanutlin -0.042 | alisertib -0.168 | [5] 0.039 | gefitinib -0.02 | [6] -0.371 | lapatinib 0.068 | pictilisib 0.038
